From paper PMC6969142 come the findings set out here.

Sequences of proteins named here, by UniProt entry; tags and fusion partners are left off.
UniProt P17210: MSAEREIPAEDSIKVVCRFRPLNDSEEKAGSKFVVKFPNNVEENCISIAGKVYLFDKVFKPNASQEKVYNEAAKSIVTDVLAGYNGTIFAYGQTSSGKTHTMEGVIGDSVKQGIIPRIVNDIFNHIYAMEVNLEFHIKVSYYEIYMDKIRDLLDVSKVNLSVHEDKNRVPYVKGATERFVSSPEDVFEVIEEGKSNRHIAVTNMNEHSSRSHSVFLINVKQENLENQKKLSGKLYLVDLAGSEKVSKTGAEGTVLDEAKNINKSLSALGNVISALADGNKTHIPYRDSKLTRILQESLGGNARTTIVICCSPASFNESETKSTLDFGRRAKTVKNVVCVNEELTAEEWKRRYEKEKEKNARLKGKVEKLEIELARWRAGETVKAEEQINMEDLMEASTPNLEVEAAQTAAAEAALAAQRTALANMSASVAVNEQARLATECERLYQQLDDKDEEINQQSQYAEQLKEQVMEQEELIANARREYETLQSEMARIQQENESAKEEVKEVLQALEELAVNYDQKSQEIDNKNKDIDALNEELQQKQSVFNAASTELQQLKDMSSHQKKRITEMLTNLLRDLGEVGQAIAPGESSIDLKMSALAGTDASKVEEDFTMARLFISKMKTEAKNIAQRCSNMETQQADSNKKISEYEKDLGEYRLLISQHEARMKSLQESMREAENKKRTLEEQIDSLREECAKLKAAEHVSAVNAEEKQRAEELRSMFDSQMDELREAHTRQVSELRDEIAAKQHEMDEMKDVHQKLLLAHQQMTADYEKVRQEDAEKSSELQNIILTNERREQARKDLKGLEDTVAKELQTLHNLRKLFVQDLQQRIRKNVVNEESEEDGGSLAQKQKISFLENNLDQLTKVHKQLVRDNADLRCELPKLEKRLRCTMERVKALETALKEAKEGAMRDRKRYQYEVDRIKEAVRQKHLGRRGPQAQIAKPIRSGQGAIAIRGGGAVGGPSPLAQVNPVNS
UniProt Q24560: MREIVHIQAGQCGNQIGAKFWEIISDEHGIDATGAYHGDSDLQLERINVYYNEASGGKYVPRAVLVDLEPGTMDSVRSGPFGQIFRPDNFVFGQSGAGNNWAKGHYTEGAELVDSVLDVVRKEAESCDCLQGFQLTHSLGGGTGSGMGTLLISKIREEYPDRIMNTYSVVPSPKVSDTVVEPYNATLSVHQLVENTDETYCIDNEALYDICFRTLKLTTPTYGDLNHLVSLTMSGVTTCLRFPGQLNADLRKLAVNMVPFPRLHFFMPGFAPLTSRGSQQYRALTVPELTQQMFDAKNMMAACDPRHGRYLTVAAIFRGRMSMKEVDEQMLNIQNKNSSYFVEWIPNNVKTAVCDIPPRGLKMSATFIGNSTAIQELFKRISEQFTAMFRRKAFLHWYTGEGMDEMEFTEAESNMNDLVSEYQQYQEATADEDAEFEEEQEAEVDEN
UniProt P37276: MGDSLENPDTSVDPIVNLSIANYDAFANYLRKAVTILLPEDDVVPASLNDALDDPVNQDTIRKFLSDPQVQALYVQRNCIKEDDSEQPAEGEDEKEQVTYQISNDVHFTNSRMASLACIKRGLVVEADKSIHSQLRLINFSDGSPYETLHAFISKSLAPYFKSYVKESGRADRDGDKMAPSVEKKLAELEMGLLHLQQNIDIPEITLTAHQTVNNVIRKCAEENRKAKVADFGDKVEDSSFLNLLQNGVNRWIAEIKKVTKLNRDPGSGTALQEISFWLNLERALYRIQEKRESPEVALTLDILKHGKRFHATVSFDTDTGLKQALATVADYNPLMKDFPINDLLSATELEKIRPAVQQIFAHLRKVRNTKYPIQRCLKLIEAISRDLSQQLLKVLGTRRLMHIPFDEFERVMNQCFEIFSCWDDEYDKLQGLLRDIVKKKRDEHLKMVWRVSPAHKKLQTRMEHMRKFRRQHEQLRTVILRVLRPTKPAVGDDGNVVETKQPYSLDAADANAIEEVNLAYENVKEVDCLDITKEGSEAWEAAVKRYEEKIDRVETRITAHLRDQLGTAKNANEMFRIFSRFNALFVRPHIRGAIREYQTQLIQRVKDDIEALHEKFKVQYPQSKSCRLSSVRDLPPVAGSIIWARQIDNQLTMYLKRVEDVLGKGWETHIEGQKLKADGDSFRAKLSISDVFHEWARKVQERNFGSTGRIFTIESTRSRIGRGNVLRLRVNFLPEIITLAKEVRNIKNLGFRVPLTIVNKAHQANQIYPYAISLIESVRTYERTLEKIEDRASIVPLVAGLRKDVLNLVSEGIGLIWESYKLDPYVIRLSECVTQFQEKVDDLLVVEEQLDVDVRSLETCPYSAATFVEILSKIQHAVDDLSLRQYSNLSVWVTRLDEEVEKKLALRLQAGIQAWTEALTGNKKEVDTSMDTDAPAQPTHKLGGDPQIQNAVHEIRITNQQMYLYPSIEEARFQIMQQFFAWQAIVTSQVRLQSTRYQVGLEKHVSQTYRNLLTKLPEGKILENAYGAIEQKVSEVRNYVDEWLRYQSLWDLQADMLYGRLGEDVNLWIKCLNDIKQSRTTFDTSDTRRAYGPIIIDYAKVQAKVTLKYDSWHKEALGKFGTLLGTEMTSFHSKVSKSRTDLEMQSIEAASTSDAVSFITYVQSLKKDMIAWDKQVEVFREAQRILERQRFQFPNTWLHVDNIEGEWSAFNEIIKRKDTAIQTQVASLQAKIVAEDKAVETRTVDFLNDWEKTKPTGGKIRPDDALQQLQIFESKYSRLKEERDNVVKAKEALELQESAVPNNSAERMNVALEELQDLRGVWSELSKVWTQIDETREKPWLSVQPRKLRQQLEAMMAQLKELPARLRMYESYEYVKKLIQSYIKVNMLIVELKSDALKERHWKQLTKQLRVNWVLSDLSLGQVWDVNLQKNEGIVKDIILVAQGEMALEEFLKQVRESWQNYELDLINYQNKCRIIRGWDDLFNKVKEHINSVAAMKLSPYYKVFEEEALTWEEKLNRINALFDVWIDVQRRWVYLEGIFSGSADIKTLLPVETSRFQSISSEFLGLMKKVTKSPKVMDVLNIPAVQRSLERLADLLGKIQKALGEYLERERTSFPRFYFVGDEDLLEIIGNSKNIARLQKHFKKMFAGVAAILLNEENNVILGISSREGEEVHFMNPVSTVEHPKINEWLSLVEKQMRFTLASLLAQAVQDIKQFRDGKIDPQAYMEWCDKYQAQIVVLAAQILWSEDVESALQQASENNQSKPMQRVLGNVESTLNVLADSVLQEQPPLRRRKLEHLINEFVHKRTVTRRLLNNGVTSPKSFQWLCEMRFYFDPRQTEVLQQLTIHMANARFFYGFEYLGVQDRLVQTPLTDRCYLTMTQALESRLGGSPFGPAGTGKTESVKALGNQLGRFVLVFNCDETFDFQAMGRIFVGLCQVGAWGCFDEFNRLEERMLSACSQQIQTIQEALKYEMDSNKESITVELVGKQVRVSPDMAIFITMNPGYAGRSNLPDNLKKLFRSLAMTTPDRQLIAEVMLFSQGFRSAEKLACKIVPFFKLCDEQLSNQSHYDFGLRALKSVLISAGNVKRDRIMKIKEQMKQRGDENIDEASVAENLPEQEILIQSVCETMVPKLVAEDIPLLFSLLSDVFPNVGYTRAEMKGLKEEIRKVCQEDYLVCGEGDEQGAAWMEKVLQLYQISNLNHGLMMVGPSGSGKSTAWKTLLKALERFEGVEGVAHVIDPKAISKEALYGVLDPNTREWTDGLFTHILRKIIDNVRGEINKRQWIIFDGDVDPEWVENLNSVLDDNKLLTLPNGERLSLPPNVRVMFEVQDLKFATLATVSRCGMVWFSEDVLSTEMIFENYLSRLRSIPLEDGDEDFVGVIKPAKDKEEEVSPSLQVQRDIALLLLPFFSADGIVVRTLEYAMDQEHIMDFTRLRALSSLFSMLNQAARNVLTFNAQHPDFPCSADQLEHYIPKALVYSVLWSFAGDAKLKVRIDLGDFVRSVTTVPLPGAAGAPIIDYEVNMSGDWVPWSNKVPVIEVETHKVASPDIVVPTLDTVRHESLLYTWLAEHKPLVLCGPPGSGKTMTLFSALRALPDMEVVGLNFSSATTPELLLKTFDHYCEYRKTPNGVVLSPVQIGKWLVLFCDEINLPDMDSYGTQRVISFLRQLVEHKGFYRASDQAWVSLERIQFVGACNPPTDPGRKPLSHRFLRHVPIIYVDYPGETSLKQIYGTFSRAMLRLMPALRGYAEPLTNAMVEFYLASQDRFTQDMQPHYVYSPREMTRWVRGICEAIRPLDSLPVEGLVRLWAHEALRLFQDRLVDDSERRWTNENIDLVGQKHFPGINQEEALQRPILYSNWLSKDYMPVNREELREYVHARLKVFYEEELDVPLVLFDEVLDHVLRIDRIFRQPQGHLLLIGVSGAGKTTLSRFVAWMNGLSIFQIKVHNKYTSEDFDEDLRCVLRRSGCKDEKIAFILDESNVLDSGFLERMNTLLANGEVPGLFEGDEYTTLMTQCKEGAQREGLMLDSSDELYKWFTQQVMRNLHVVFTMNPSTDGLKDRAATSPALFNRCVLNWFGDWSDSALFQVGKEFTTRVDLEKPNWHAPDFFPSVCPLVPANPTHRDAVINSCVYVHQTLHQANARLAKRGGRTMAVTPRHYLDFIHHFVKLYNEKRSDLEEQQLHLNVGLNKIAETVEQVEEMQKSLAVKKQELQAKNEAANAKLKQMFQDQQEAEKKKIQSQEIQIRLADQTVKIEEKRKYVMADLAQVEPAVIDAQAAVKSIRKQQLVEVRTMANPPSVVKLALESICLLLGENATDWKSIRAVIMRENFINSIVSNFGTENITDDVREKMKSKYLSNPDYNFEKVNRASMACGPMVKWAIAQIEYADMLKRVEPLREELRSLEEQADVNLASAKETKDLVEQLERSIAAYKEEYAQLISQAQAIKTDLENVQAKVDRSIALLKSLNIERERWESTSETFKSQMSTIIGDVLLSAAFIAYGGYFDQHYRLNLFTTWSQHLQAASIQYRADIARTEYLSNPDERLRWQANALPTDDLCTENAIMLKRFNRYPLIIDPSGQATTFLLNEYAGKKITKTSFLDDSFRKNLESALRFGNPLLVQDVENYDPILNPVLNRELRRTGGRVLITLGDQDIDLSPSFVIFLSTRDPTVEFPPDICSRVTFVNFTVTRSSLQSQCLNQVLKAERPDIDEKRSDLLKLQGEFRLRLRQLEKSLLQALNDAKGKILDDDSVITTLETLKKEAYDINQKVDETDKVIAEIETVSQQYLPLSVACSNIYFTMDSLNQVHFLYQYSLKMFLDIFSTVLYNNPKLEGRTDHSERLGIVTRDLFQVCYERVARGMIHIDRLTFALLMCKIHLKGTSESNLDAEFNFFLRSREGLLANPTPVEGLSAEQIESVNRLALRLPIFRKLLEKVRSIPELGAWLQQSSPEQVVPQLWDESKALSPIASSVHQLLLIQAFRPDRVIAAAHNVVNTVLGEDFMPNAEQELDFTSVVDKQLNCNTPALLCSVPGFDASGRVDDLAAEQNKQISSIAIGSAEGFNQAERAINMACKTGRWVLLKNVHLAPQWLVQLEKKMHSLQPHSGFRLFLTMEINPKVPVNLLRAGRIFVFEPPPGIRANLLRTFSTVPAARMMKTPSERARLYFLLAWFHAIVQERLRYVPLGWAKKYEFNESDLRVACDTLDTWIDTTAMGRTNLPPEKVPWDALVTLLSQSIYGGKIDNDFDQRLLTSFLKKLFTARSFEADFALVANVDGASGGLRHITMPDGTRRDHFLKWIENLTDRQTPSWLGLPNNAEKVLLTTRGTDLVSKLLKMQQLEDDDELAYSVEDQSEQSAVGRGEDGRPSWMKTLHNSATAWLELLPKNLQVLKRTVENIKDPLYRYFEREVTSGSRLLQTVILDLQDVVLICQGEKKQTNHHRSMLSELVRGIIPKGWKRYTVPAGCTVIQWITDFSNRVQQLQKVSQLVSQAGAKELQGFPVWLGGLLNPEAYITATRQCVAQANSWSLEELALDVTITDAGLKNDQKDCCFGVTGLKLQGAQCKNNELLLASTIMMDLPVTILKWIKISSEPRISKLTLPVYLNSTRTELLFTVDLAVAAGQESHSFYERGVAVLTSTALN
UniProt P15007: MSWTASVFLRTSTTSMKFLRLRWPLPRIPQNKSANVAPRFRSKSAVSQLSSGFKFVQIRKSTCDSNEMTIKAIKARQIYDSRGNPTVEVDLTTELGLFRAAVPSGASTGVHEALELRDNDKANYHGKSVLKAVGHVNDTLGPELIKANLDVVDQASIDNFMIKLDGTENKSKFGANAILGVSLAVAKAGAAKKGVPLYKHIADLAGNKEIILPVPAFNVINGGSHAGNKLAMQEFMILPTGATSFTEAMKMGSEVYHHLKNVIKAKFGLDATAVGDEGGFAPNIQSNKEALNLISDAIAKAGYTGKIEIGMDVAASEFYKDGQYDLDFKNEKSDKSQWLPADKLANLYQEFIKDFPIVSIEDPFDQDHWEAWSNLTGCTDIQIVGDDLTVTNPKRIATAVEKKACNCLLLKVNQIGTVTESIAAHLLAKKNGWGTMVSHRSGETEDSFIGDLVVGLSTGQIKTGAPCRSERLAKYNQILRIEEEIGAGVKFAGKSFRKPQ

In the assay the target is T1, Me31B-GFP fusion protein (Drosophila melanogaster) (UniProt P23128).
T1 sequence: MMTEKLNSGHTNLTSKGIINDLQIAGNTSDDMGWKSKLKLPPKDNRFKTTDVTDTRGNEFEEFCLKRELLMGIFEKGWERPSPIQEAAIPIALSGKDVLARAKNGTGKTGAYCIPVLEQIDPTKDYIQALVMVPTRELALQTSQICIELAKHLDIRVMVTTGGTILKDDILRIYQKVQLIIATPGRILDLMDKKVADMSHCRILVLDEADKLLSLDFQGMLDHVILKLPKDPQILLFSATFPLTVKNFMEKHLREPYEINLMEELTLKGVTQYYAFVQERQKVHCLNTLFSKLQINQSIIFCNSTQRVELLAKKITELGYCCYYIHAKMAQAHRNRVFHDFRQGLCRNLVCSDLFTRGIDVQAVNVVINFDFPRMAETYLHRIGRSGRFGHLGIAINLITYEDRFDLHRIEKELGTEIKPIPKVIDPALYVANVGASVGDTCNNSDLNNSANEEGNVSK
In words: affinity purification with mass spectrometry; 0–1 hour Me31B-GFP embryos crosslinked in vivo with 0.2% formaldehyde; lysate on anti-GFP magnetic beads, 5 stringent washes; complexes resolved on a 3–15% step gel and the band excised; four biological replicates; GFP flies as control.

Results are given in words; binding and its absence hold for the method and conditions named. Binding seen in cells or lysates may run through a third protein. These calls come from enrichment with a bait or labelling near it, and not all partners need be listed. Where a sequence is shown, tags or fusion partners need not be part of it.

Turning to “Kinesin heavy chain (Khc) (from UniProt P17210 1-975)”, the binding entry is on record as “binds”.
With “eIF4A (eIF-4a) (from UniProt Q02748 1-403)” the entry was “binds”; with “β-Tubulin (BetaTub56D) (from UniProt Q24560 1-447)”, “binds”; with “Dynein heavy chain (Dhc 64 C) (from UniProt P37276 1-4639)”, “binds”.
For Belle (Bel) (from UniProt Q9VHP0 1-798), the binding result is “binds”.
The value for “Enolase (Eno) (from UniProt P15007 1-500) (enzyme)” was “binds”; that for “Tudor (Tud) (from UniProt P25823 1-2515)” was “binds weakly”.
With “Pyruvate kinase (PyK) (from UniProt O62619 1-533) (enzyme)” the entry was “binds”; with “Pacman (Pcm) (from UniProt Q9VWI1 1-1612)”, “binds”.

B1: eIF4E (eIF-4E) (protein, UniProt P48598 1-259)
chain: MQSDFHRMKNFANPKSMFKTSAPSTEQGRPEPPTSAAAPAEAKDVKPKEDPQETGEPAGNTATTTAPAGDDAVRTEHLYKHPLMNVWTLWYLENDRSKSWEDMQNEITSFDTVEDFWSLYNHIKPPSEIKLGSDYSLFKKNIRPMWEDAANKQGGRWVITLNKSSKTDLDNLWLDVLLCLIGEAFDHSDQICGAVINIRGKSNKISIWTADGNNEEAALEIGHKLRDALRLGRNNSLQYQLHKDTMVKQGSNVKSIYTL
With B1, the binding entry is on record as “binds”.

B2: Phosphoglycerate kinase (PgK) (enzyme, UniProt Q01604 1-415)
chain: MAFNKLSIENLDLAGKRVLMRVDFNVPIKEGKITSNQRIVAALDSIKLALSKKAKSVVLMSHLGRPDGNKNIKYTLAPVAAELKTLLGQDVIFLSDCVGSEVEAACKDPAPGSVILLENVRFYVEEEGKGLDASGGKVKADPAKVKEFRASLAKLGDVYVNDAFGTAHRAHSSMMGDGFEQRAAGLLLNKELKYFSQALDKPPNPFLAILGGAKVADKIQLIENLLDKVNEMIIGGGMAFTFLKVLNNMKIGGSLFDEEGSKIVEKLVEKAKKNNVQLHLPVDFVCGDKFAENAAVSEATVEAGIPDGHMGLDVGPKTRELFAAPIARAKLIVWNGPPGVFEFPNFANGTKSIMDGVVAATKNGTVSIIGGGDTASCCAKWNTEALVSHVSTGGGASLELLEGKTLPGVAALTSA
On to B2, for which the binding entry was “binds”.

B3: Cup (Cup) (protein, UniProt Q9VMA3 1-1117)
chain: MQMAEAEQENGAGALKIATNAGATDRPAHQQLPLPVEDQQDEVLTPAEKGKFEYPPPPPPPTPVQAPLATKATALNASQEHDDDEANSEKWEDPCAPPPPPPLPTSAFLATGLGYLKLPAFKLKDALEKAITKLEANKRTLKASPESSRSIKNKNVVALEMLPRRSNPETIGDGSMLASTSTAVMLQTKKPAVIVEMERRCKIINLLAKQNQILESISGEAIPMHGPSKHLHEDEGLTLQVLSARASTPYTQPSSMLSCTAVSCDLEHDSPRKQVASKEAVPEQQSSQVQQKRPPSTGIHKPGSLRAPKAVRPTTAPVVSSKPVKSYTRSRLMDIRNGMFNALMHRSKESFVMPRIATCDDIELEGRLRRMNIWRTSDGTRFRTRSTTANLNMNNNNNNECMPAFFKNKNKPNLISDESIIQSQPPQPQTEFQDPAIVNQRRIGSGRLNHSKWGYNDEDYHSYHNGKSQHMEEVNSKNSKNMTVLQFFDNGEISSQPQRRPNTPVMGMSINRSENDTLHSNESSEDLSRANENYVKRVMSGFLVVSKPKSRDVEDRHHRRYRNQNEEPEWFSCGPTSRLDTIELCGFDEDEEKMLKEGNKNHGLGETERETSKQKMDHKYKWTHAEPMGRSKYMPKHDTNNNHNVENMNNVMATEHQQQKEEKRPGSGRSFQFDKFNQSQQNYESSSYVNHQQPPQTQPQQMQQQSNTNTNNSKFMSFFANEGNSSSSSLNEFFKQAINQGHGNNPEQPKSLGHIGQMPSVDQLEAKWRRNSLNNVGETANKQTDNFQKLIGSLSSAKPQSQAVGYDAISNFIMQQQQYQQQQQKQHLIIQQQQQHTAFLASLQLKAILGRADTQLLLLRLTKGEISKHGLLVQLANPRLTDMDREAITAVLQFTNTQQQQQQHKQQLDMLSSTVIASQLQNLHNLAIVQQTLAARQQPQHNPQTQAPHQLSQEDLQAHANVIMRNAVMKRKIEEQTSKLINGGAKHQAQQQYLNRGQQRQARPDANSNALLHALISGGGNNHASGYPMNGQPQKHHSNLRFGDNQNFQSFESNQPHFATQYKQQYQQSQQQHPHQQPQQLNSLHQNNAGAVNSFNKAQMQAQSAISMLPNSGDEFH
As to B3, the binding result is given as “binds”.

B4: 6-phosphofructokinase (PfK) (enzyme, UniProt P52034 1-788)
chain: MNSEINQRFLARGSQKDKGLAVFTSGGDSQGMNAAVRACVRMAIYLGCKVYFIREGYQGMVDGGDCIQEANWASVSSIIHRGGTIIGSARCQDFRERQGRLKAANNLIQRGITNLVVIGGDGSLTGANLFRQEWSSLLDELVKNKTITTEQQEKFNVLHIVGLVGSIDNDFCGTDMTIGTDTALHRIIEAIDAISSTAYSHQRTFIMEVMGRHCGYLALVGGLACEADFIFIPEMPPKVDWPDRLCSQLAQERSAGQRLNIVIVAEGAMDREGHPITAEDVKKVIDERLKHDARITVLGHVQRGGNPSAFDRILACRMGAEATLALMEATKDSVPVVISLDGNQAVRVPLMECVERTQAVAKAMAEKRWADAVKLRGRSFERNLETYKMLTRLKPPKENFDADGKGIEGYRLAVMHIGAPACGMNAAVRSFVRNAIYRGDVVYGINDGVEGLIAGNVRELGWSDVSGWVGQGGAYLGTKRTLPEGKFKEIAARLKEFKIQGLLIIGGFESYHAAGQIADQRDNYPQFCIPIVVIPSTISNNVPGTEFSLGCDTGLNEITEICDRIRQSAQGTKRRVFVIETMGGYCGYLATLAGLAGGADAAYIYEEKFSIKDLQQDVYHMASKMAEGVSRGLILRNEKASENYSTDFIYRLYSEEGKGLFTCRMNILGHMQQGGSPTPFDRNMGTKMAAKCVDWLAAQIKANIDANGVVNCKSPDTATLLGIVSRQYRFSPLVDLIAETNFDQRIPKKQWWLRLRPLLRILAKHDSAYEEEGMYITVEEECDTDAVA
In the case of B4, the binding entry is “binds”.

B5: Bicaudal-C (BicC) (protein, UniProt Q24009 1-905)
chain: MLSCASFNKLMYPSAADVAKPPMVGLEVEAGSIGSLSSLHALPSTTSVGSGAPSETQSEISSVDSDWSDIRAIAMKLGVQNPDDLHTERFKVDRQKLEQLIKAESSIEGMNGAEYFFHDIMNTTDTYVSWPCRLKIGAKSKKDPHVRIVGKVDQVQRAKERILSSLDSRGTRVIMKMDVSYTDHSYIIGRGGNNIKRIMDDTHTHIHFPDSNRSNPTEKSNQVSLCGSLEGVERARALVRLSTPLLISFEMPVMGPNKPQPDHETPYIKMIETKFNVQVIFSTRPKLHTSLVLVKGSEKESAQVRDATQLLINFACESIASQILVNVQMEISPQHHEIVKGKNNVNLLSIMERTQTKIIFPDLSDMNVKPLKKSQVTISGRIDDVYLARQQLLGNLPVALIFDFPDNHNDASEIMSLNTKYGVYITLRQKQRQSTLAIVVKGVEKFIDKIYEARQEILRLATPFVKPEIPDYYFMPKDKDLNLAYRTQLTALLAGYVDSPKTPSLLPPSLAGQLTPYANNNHLLLNANGLATPTGVCAPTQKYMQLHNSFQQAQNRSMVAGGQSNNGNYLQVPGAVAPPLKPPTVSPRNSCSQNTSGYQSFSSSTTSLEQSYPPYAQLPGTVSSTSSSTAGSQNRAHYSPDSTYGSEGGGVGGGGGGGARLGRRLSDGVLLGLSNSNGGGGNSGGAHLLPGSAESYRSLHYDLGGNKHSGHRAFDFDMKRALGYKAMERTPVAGELRTPTTAWMGMGLSSTSPAPAPLENGENGAAGGGASSGWRLPPGLGSPYGLSATTGLLDATPVNRRMQLAKHKDIQTLLTSLGLEHYIKIFVLNEIDLEVFTTLTEENLMELGIAAFGARKKLLTAIHTLLANEAACSTMPSSSSSQNSSSPRFSGSAAPGAERRPSNQW
Take B5: the binding entry is recorded as “binds”.
